The source of these data is paper PMC7913681.

Sequences of proteins named here, by UniProt entry; tags and fusion partners are left off. A change or cut given only in a name is not applied to a line headed by its entry. Residues count along the entry.
UniProt Q96L73: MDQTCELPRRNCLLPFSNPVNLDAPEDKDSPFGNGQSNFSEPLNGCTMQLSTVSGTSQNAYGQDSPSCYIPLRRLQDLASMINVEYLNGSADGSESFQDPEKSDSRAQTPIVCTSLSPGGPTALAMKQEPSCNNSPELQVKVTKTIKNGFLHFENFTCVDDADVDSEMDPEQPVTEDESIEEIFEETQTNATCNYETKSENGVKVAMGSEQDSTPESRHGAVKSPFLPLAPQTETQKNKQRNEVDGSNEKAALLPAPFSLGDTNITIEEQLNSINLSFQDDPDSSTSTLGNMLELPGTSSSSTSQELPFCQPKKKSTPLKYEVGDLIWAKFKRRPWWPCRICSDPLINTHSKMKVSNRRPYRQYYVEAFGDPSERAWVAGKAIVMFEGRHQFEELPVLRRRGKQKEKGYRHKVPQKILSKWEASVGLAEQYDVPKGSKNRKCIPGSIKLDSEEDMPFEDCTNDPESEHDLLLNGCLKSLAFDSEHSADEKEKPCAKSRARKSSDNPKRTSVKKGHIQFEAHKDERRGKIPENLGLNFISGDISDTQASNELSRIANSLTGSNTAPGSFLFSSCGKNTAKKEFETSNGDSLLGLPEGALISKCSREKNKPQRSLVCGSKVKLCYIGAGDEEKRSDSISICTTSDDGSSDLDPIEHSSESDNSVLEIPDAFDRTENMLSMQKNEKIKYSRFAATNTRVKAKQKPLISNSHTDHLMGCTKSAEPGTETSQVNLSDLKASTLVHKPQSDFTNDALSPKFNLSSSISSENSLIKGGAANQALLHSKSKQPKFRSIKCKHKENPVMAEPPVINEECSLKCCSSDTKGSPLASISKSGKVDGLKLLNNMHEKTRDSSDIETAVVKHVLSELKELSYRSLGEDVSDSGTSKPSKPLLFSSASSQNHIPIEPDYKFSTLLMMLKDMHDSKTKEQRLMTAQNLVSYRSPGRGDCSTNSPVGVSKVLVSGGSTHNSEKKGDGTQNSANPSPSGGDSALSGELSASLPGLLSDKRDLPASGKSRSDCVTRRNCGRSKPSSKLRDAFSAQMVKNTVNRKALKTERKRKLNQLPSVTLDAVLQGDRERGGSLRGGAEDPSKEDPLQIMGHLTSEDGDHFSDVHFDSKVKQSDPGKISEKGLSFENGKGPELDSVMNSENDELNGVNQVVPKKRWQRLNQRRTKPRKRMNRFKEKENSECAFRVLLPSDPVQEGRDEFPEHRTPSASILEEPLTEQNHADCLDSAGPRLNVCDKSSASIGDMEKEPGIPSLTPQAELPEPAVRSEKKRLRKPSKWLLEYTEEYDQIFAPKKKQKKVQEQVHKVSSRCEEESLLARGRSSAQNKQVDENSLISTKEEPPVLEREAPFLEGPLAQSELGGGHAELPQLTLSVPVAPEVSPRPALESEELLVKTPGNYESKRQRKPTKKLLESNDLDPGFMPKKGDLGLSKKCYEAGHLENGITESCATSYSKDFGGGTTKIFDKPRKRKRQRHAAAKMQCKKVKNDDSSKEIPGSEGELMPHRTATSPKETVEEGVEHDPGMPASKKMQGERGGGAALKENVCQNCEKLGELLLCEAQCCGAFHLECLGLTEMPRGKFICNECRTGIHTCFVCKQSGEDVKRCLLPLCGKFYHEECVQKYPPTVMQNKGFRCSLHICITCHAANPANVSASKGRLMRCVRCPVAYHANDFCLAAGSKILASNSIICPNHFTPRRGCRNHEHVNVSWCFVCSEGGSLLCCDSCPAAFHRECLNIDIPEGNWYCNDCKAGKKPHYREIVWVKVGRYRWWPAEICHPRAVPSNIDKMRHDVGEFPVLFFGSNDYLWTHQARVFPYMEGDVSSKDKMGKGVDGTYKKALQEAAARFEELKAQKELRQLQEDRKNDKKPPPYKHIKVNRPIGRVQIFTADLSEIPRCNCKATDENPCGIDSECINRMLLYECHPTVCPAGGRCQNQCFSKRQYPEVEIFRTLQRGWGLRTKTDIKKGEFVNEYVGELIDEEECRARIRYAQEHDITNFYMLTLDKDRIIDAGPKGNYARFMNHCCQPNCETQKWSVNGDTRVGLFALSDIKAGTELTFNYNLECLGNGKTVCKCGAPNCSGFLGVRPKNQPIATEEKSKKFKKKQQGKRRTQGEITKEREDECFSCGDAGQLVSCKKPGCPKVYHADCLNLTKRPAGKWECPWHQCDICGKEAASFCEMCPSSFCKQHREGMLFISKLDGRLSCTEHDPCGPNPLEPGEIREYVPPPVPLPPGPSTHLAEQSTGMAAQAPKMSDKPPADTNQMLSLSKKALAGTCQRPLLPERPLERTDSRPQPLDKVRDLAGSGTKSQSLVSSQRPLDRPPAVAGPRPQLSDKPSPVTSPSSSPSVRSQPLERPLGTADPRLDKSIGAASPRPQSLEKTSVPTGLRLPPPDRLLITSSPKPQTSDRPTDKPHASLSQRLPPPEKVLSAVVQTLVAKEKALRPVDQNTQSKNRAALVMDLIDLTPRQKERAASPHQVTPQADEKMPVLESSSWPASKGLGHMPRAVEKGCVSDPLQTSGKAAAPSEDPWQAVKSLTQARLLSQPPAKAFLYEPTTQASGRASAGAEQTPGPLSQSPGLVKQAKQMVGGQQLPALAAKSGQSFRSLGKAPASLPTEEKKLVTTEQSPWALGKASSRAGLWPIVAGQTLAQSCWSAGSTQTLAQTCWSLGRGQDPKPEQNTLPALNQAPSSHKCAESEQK
UniProt P26367, residues 1-302: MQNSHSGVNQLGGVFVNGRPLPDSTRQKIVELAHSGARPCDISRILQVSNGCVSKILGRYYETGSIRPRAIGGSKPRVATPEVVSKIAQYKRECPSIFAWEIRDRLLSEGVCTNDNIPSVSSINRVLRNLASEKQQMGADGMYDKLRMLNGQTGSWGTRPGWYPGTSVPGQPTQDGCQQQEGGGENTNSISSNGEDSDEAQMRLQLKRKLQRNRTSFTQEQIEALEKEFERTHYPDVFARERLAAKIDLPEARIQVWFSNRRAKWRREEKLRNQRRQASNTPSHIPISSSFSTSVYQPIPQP

These are yes or no findings as the source states them, for the method shown. In cells and extracts the contact can be indirect.

The target of the assay is myc-NSD1 (UniProt Q96L73). The experiment in a line: co-IP; tagged proteins co-expressed in 293FT (HEK293FT) cells, co-IP from extracts; which partner was precipitated is not told.

In the case of “Flag-ΔC (from UniProt P26367 1-302) (domain or fragment)”, the binding entry is reported as “no binding”.
